Some results were stated once for a whole list of compounds, not compound by compound.
System: BALB/c (H-2d) mice
Experiment: β-Galactosidase-specific IgG isotypes in the serum of immunized mice (ELISA, Example 8)
Assay type: in vivo
Settings: coadministration with β-galactosidase

Substance | IgG1/2a, IgG1/2b or IgG1/3 ratio
CTB [reference compound] | above 100
S-[2,3-bispalmitoyloxypropyl]cysteinyl-GNNDESNISFKEK (N-terminal S-(2,3-bispalmitoyloxypropyl)cysteine lipid) [MALP-2] | above 100

— US10905761B2, “Use of a lipopeptide or lipoprotein as an adjuvant in therapeutic or prophylactic vaccinations” (HELMHOLTZ-ZENTRUM FUER INFEKTIONSFORSCHUNG GMBH, priority 2002, dated 2021)
